Reference: PubChem BioAssay AID1259308 (NCATS, 2017)

Test: 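Knock-downs that increase output of a recombinant reporter protein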 (primary screen)
Cell system: human HEK293 embryonic kidney cells stably expressing firefly luciferase (HEK-CMV-Luc2-Hygro)
Knock-down reagent: single siRNA against human genes, 0.8 pmol siRNA per well
Duration: 72 h
Measurement: 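Reporter luminescence and viable-cell signal on separate replicate plates, given as percent of non-targeting control and median/MAD z-scores, plus per-cell luciferase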
Direction: total luciferase, z-score: higher = more reporter protein produced
Active means: 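An siRNA counts as active if its total luciferase robust z-score exceeds 3; genes with two or more such siRNAs out of three were retested with fresh siRNAs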
Meaning of the calls: active = raised luciferase; inactive = no rise
Shown is an unselected part of about 59,000 reagents. About 1,510 of all reagents (2.6%) count as active. 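Calls use total luciferase alone and ignore viability, so some active siRNAs may act by altering cell number.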 Entries without a mark were called inactive. Reagents against one gene are numbered here. Further read-outs or replicates are left out here.

LSMEM1 #1 showed total luciferase, z-score -1.06.
With knock-down of LSMEM1 #2, the record shows total luciferase, z-score -0.0578.
Against LSMEM1 #3, the values are total luciferase, z-score -1.22.
Knock-down of OR51S1 #1 resulted in: total luciferase, z-score 1.05.
After knock-down of OR51S1 #2 the results were total luciferase, z-score 0.7.
Knock-down of OR51S1 #3 resulted in: total luciferase, z-score 0.943.
FGF11 #1 scored total luciferase, z-score 0.174.
FGF11 #2 scored total luciferase, z-score 0.133.
With knock-down of FGF11 #3, the record shows total luciferase, z-score -1.17.
Silencing of QTGAL #1 gave: total luciferase, z-score 0.676.
QTGAL #2 showed total luciferase, z-score -1.02.
With knock-down of QTGAL #3, the screen gave total luciferase, z-score -0.0656.
EEF1A1P15 #1 gave total luciferase, z-score 1.05.
For EEF1A1P15 #2, the values are total luciferase, z-score -0.408.
For EEF1A1P15 #3, the entry reads total luciferase, z-score -0.0632.
CRBN #1 gave total luciferase, z-score 0.331.
CRBN #2 scored total luciferase, z-score -1.89.
With knock-down of CRBN #3, the record shows total luciferase, z-score -0.797.
Knock-down of NPFF #1 came out at: total luciferase, z-score -0.658.
Against NPFF #2, the entry reads total luciferase, z-score 5.14 (active).
Knock-down of NPFF #3 resulted in: total luciferase, z-score -1.69.
Against DNM1L #1 the deposit lists total luciferase, z-score 1.62.
Against DNM1L #2 the deposit lists total luciferase, z-score 0.778.
After knock-down of DNM1L #3 the results were total luciferase, z-score -1.09.
After knock-down of TCF12 #1, the record shows total luciferase, z-score -0.106.
After knock-down of TCF12 #2, the screen gave total luciferase, z-score -1.44.
Depletion of TCF12 #3 came out at: total luciferase, z-score -0.0762.
Knock-down of SUGP2 #1 gave: total luciferase, z-score -0.793.
After knock-down of SUGP2 #2, the screen gave total luciferase, z-score -0.816.
Silencing of SUGP2 #3 resulted in: total luciferase, z-score -0.407.
TSPO2 #1 scored total luciferase, z-score 1.44.
After knock-down of TSPO2 #2 the results were total luciferase, z-score 0.406.
With knock-down of TSPO2 #3, the record shows total luciferase, z-score -0.998.
